From PubChem BioAssay AID493014 (National Center for Advancing Translational Sciences (NCATS), 2011)
Some of the results follow. Shown are side measurements of this screen, not its main read-out; they come without a call. Most of these compounds were active or inconclusive in the main read-out, so they are no random draw. Words in brackets tell the shape of the fitted curve; partial curves, single points and poor fits give uncertain potencies.

Assay: qHTS Assay to Find Inhibitors of Chronic Active B-Cell Receptor Signaling
Conditions: ABC-DLBCL IkBa-CBG/CBR reporter, luminescence ratio (green luciferase fused to IkBa over red control in TMD8 lymphoma cells), 4 h
Summary of the method: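 Doxycycline induced both beetle luciferases in TMD8 lymphoma cells; IKK-driven degradation limits the IkappaBalpha-fused green signal, while red luminescence normalises for cell number and nonspecific effects. Compounds tested up to 46 uM, 4 hrs.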

[1] = measured here: CBR red luminescence, cell number
[2] = measured here: IkBa-CBG green luminescence

Compound | AC50 [1] | AC50 [2]
CC(C)C(=O)Nc1cccc(NC(=O)c2cccc(Br)c2)c1 | 12.6 µM [falling, partial curve, poor fit] | –
CC1(C)CC(=O)C2=C(C1)N(c1ccccc1C#N)C(N)=C(C#N)C2c1cccs1 (centres undefined) | 7.31 µM [rising, partial curve, poor fit] | –
COc1ccc(CSc2ncn[nH]2)cc1[N+](=O)[O-] | 18.4 µM [rising, single point] | –
Cc1cccc(NC(=O)CSc2ncnc3nc[nH]c23)c1C | 35.5 µM [falling, single point] | –
CCO/N=C(/C)c1c(O)cc(C(C)(C)C)n(-c2ccccc2)c1=O | 25.9 µM [rising, single point] | –
COc1ccccc1NC=C1C(=O)OC2(CCCCC2)OC1=O | 5.62 µM [rising, single point] | –
COc1ccc(-n2c(N)c(C(=O)NCc3ccco3)c3nc4ccccc4nc32)cc1OC | 14.6 µM [falling, partial curve, poor fit] | –
COc1ccc(NC(=O)CSCC(=O)Nc2nnc(C3CC3)s2)cc1 | 2.31 µM [rising, partial curve, poor fit] | –
CSc1ncc(Cl)c(C(=O)Nc2ccccc2C)n1 | 4.47 µM [rising, partial curve, poor fit] | –
COc1cc(Cl)cc(/C=C/c2ccc3ccccc3n2)c1OC(C)=O | 1.03 µM [rising, partial curve] | –
CC1CC(CCN)(c2ccccc2)C(C)CN1C (centres undefined) | 0.112 µM [falling, full curve, poor fit] | –
Cn1ccc2cc(-c3ccc4ncnc(NCc5cccs5)c4c3)ccc21 | 20.6 µM [falling, partial curve] | –
O=c1ccc2[n+]([O-])c3ccc(O)cc3oc-2c1 | 14.1 µM [rising, partial curve] | 6.31 µM [rising, partial curve, poor fit]
COc1ccccc1OCC(=O)Nc1cccc(-c2nc3ccccc3o2)c1 | 0.461 µM [falling, full curve, poor fit] | –
O=C(Cn1c(-c2ccccn2)nc2ccccc21)NCCN1CCOCC1 | 29.1 µM [rising, single point] | –
Cc1cc(C)nc(NS(=O)(=O)c2ccc(N/C=C\C(=O)c3cccs3)cc2)n1 | 25.1 µM [falling, single point] | –
Cc1nc(SCc2nc3ccc(Cl)cc3[nH]2)c2oc3ccccc3c2n1 | 18.4 µM [falling, single point] | –
CC(C)C[C@H](NC(=O)N1CCCCCC1)C(=O)O | 35.5 µM [rising, single point] | –
Cc1onc(-c2ccccc2)c1C(=O)OCCOc1ccc([N+](=O)[O-])cc1[N+](=O)[O-] | 6.31 µM [rising, single point] | –
CC(=O)Nc1ccc(NC(=O)COC(=O)c2ccc(C)s2)cc1 | 20.6 µM [rising, single point] | –
O=C(CCCc1ccccc1)Nc1cccnc1 | 18.4 µM [falling, single point] | 20.6 µM [rising, partial curve, poor fit]

In another format: results already given
Compound,AC50 [1],AC50 [2]
COc1ccccc1OCC(=O)Nc1cccc(-c2nc3ccccc3o2)c1,"0.461 µM [falling, full curve, poor fit]",–
O=C(Cn1c(-c2ccccn2)nc2ccccc21)NCCN1CCOCC1,"29.1 µM [rising, single point]",–
CC(=O)Nc1ccc(NC(=O)COC(=O)c2ccc(C)s2)cc1,"20.6 µM [rising, single point]",–

For convenience, 2 of the compounds above.
Compound | AC50 [1] | AC50 [2]
COc1ccc(CSc2ncn[nH]2)cc1[N+](=O)[O-] | 18.4 µM [rising, single point] | –
Cc1cccc(NC(=O)CSc2ncnc3nc[nH]c23)c1C | 35.5 µM [falling, single point] | –

Next results.

Compound | AC50 [1] | AC50 [2]
O=[N+]([O-])c1ccc(N/N=C\c2cccn2-c2ccccc2)nc1 | 0.447 µM [rising, partial curve, poor fit] | –
CCCc1cc(NCCCN(C)C)n2c(nc3ccccc32)c1C#N | 11.2 µM [falling, single point] | –
Cc1cc(C)c(NC(=O)CNC(=O)c2ccccc2OCc2c(C)noc2C)c(C)c1 | 20.6 µM [rising, single point] | –
COC(=O)c1ccccc1SCc1csc(C)n1 | 8.91 µM [rising, partial curve] | –
COc1cccc(C2C(=O)c3ccccc3C2=O)c1 | 4.47 µM [rising, single point] | –
COc1ccc(NS(=O)(=O)c2cccc(NC(=O)CCS(=O)(=O)c3ccccc3)c2)cc1 | 32.6 µM [falling, partial curve, poor fit] | –
CCNc1nc(NC(C)C)nc(N(C#N)CCOc2ccc(Cl)cc2Cl)n1 | 29.1 µM [falling, single point] | 23.1 µM [rising, partial curve, poor fit]
CCCCOc1ccc(C(=O)NCCOc2cccc(OC)c2)cc1 | 25.1 µM [rising, partial curve, poor fit] | –
CCOc1ccc(OCc2ccc(C(=O)O)o2)cc1 | 8.2 µM [falling, partial curve] | –
Cc1ccc(S(=O)(=O)Nc2ccc(C(=O)N3CCN(c4ccccc4O)CC3)cc2)cc1[N+](=O)[O-] | 32.6 µM [falling, single point] | –
C/C(=N\Nc1ccc(C(=O)O)cc1)c1ccc2c(c1)Nc1ccccc1S2 | 2.82 µM [falling, full curve] | 0.316 µM [rising, full curve, poor fit]
COc1cc(C(=O)Nc2ccc(O)cc2)ccc1OC(C)=O | 2.31 µM [falling, partial curve, poor fit] | –
CC(=O)c1ccccc1NC(=O)c1ccc2c(c1)NC(=O)C(C)S2 (centres undefined) | 11.6 µM [falling, partial curve, poor fit] | –
COc1cccc(-c2c(C(=O)N/N=C(\C)c3cccs3)nnn2-c2nonc2N)c1 | 15.8 µM [falling, single point] | –
Cc1cc2ncn(CCCCOc3ccccc3)c2cc1C | 23.1 µM [rising, partial curve, poor fit] | –
CC1CC(C)CN(S(=O)(=O)c2ccc(C(=O)NCc3ccco3)cc2)C1 (centres undefined) | 35.5 µM [rising, partial curve, poor fit] | –
O=C(NNC(=O)c1ccccc1Br)c1ccc(SCC2CCCO2)c([N+](=O)[O-])c1 (centres undefined) | 3.55 µM [falling, partial curve, poor fit] | –
CC1CCc2sc3ncn4nc(C(=O)NCc5ccco5)nc4c3c2C1 (centres undefined) | 6.51 µM [rising, single point] | –
O=C1CCCC(O)=C1N=Nc1cccc(C(=O)O)c1 | 4.47 µM [falling, full curve] | –
Cc1cccc(NC(=O)c2ccc(C(=O)c3ccccc3)o2)c1 | 25.1 µM [falling, single point] | –
NC(=O)c1ccc(N=C2C(=O)Nc3ccc([N+](=O)[O-])cc32)cc1 | 22.4 µM [rising, single point] | 25.1 µM [falling, single point]

Compound | AC50 [1] | AC50 [2]
COc1cc(/C=N/N=C2/NC(=O)C(Cc3ccccc3)S2)ccc1O (centres undefined) | 10 µM [falling, partial curve, poor fit] | 11.2 µM [falling, single point]
CCN(CC)CCSc1nc2ccc(OC)cc2[nH]1 | 0.891 µM [rising, full curve, poor fit] | –
NS(=O)(=O)c1ccc(NC(=O)CSc2nc3ccccc3c(=O)n2Cc2ccncc2)cc1 | 18.4 µM [rising, partial curve] | –
O=C(N/N=C/c1ccc(O)cc1)c1ccc(NC(=O)c2ccccc2Br)cc1 | 35.5 µM [falling, single point] | –
O=C(Nc1nc(-c2ccccc2)cs1)c1ccccc1NS(=O)(=O)c1ccc(F)cc1 | 2.91 µM [falling, full curve, poor fit] | –
COc1ccc(C)cc1S(=O)(=O)N(CC(=O)Nc1cccc([N+](=O)[O-])c1)c1ccc(C)c(C)c1 | 0.58 µM [falling, full curve, poor fit] | 2.59 µM [rising, partial curve, poor fit]
COc1ccc(N)c2c1C(=O)c1ccccc1C2=O | 1.46 µM [falling, partial curve, poor fit] | –
CCCC(=O)Nc1ccc(NC(=O)c2cccc(OC)c2)nc1 | 12.6 µM [falling, partial curve, poor fit] | –
Cc1ccc(N2CCN(CC3CC=CCC3)CC2)cc1 (centres undefined) | 35.5 µM [rising, single point] | –
O=C(/C=C/c1ccccc1Cl)Nc1ccc2c(c1)C(=O)NC2=O | 0.316 µM [falling, full curve] | –
NS(=O)(=O)c1ccc(NC(=O)COC(=O)c2cn(-c3ccccc3)nc2-c2ccc(F)cc2)cc1 | 18.4 µM [rising, single point] | –
COCCC(=O)N1CCC(Oc2ccc(C(=O)N3CCC(N(C)C)C3)cc2)CC1 (centres undefined) | 6.31 µM [falling, single point] | –
O=C(/C=C/c1ccccc1)NC(=S)Nc1ncccn1 | 17.8 µM [falling, single point] | –
O=C(CNC(=O)c1ccc(F)cc1)N/N=C/c1cc(Br)ccc1OCc1ccccc1 | 4.11 µM [rising, full curve, poor fit] | –
Cc1ccc(NC(=O)CSCC(=O)Nc2cc(C(F)(F)F)ccc2N2CCOCC2)cc1 | 11.6 µM [falling, partial curve, poor fit] | –
O=C(CNCc1ccccc1)Nc1ccc(Oc2ccccc2)cc1 | 15.8 µM [rising, partial curve] | 12.6 µM [falling, partial curve]
CC(=O)Nc1ccc(SC[C@H](c2ccccc2)N2CCN(CCc3ccccc3)CCC2=O)cc1 | 0.282 µM [rising, full curve, poor fit] | –
O=C(NC(C(=O)O)c1ccccc1)c1ccccc1 (centres undefined) | 1.64 µM [rising, partial curve, poor fit] | –
O=C(NNc1nc2ccccc2s1)c1ccccc1F | 35.5 µM [falling, single point] | –
